Reference: article PMC11516061
Results are given in words; binding and its absence hold for the method and conditions named. In cells and extracts the contact can be indirect. Here binding means that the protein was enriched with, or labelled near, the bait; the list need not be complete. Where a sequence is shown, tags or fusion partners need not be part of it.

Sequences of proteins named here, by UniProt entry; tags and fusion partners are left off.
UniProt Q9UKV5: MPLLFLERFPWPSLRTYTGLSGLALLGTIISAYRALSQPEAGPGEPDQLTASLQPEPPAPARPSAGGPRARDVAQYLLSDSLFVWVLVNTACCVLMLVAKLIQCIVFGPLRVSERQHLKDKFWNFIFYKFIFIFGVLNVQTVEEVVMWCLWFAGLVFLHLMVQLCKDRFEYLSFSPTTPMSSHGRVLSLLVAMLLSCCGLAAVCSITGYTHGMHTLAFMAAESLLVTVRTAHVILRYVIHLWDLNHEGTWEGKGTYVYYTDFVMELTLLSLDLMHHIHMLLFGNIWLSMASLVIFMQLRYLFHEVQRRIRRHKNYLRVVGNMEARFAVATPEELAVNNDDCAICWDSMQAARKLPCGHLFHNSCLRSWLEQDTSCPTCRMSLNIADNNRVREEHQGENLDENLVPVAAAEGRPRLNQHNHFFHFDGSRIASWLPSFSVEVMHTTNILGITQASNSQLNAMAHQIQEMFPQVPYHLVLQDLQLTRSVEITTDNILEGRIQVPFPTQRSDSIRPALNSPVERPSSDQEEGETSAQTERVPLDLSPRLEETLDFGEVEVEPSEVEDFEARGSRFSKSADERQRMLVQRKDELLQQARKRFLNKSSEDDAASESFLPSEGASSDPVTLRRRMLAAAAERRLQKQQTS

Target: T1, FLAG-tagged B7-H4 (human), stably expressed in MDA-MB-468 cells (human) (UniProt Q7Z7D3)
T1 sequence: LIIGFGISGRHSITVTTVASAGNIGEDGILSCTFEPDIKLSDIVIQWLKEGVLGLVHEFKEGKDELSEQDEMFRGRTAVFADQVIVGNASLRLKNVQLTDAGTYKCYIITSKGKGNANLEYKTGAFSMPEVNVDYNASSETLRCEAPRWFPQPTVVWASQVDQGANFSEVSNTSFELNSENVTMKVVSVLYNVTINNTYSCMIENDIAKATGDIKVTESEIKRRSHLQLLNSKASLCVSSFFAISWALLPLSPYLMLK
Assay: affinity purification with mass spectrometry; FLAG-B7-H4 immunoprecipitated with anti-FLAG M2 agarose from MDA-MB-468 stable cells lysed in NP40 buffer (1% NP-40, 10% glycerol, 25 mmol/L Tris-HCl pH 7.9), washed with TBST, eluted with 3x FLAG peptide, SDS-PAGE, mass spectrometry; empty vector as control

binding: binds
Substance: autocrine motility factor receptor (AMFR), endogenous in MDA-MB-468 cells (from UniProt Q9UKV5 1-643) (enzyme)
